Article PMC10747088
For at least one entry, the source does not settle the construct or the ends of the probe. For part of these data: Negatives hold for the conditions tested.

Amino acid sequences for entries named in this document (tags omitted).
UniProt P09874, whole entry: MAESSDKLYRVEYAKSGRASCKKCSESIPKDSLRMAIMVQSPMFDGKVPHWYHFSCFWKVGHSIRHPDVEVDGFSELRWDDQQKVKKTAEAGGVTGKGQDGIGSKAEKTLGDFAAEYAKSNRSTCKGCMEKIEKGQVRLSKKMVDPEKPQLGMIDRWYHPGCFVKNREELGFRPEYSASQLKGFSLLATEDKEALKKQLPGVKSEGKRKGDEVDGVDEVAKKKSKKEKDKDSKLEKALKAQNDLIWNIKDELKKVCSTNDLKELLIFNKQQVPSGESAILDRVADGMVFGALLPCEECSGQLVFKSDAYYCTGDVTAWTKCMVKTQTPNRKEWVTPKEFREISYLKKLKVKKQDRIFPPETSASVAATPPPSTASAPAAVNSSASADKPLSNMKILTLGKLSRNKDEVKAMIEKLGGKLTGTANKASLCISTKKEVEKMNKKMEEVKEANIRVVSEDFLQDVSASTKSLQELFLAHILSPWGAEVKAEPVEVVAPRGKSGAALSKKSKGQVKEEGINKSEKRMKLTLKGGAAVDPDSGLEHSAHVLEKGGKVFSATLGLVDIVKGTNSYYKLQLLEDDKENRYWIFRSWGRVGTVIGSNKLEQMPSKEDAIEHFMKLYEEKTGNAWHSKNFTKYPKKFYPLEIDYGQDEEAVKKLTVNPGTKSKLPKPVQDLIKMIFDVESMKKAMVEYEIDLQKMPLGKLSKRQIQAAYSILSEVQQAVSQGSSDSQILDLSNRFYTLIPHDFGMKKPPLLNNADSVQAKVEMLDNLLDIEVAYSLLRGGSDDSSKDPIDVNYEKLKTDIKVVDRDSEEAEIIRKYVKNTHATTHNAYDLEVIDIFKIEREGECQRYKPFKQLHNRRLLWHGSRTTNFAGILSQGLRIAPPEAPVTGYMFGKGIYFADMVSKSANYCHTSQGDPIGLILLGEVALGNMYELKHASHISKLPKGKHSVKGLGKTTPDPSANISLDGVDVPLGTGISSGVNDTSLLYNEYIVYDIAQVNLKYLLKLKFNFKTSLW

Experiments:
Experiment in all cases: EMSA
[1] = biological target: human serum albumin (HSA) (Homo sapiens) (UniProt P02768); details: HSA EMSA: TA/TAM buffer, 1 h, native 8% PAAG at 37 C, Ku/PARP1 EMSA: 50 mM Tris-HCl pH 8.0, 20 mM NaCl, 0.25 mM EDTA, 5% glycerol, 0.025% NP-40, 37 C 10-20 min, commercial protein, letters put together from the description
Ku antigen = details: 30 or 60 nM Ku, 15 uM HSA does not reduce binding, HSA EMSA: TA/TAM buffer, 1 h, native 8% PAAG at 37 C, Ku/PARP1 EMSA: 50 mM Tris-HCl pH 8.0, 20 mM NaCl, 0.25 mM EDTA, 5% glycerol, 0.025% NP-40, 37 C 10-20 min, label: 32P, letters put together from the …
PARP1 = PARP1 (UniProt P09874); details: 60 nM PARP1: practically no free DNA, HSA does not lower binding; triazinyl phosphoramidate with two dodecyl groups at T29*T30 of strand 1; HSA EMSA: TA/TAM buffer, 1 h, native 8% PAAG at 37 C; Ku/PARP1 EMSA: 50 mM Tris-HCl pH 8.0, 20 mM NaCl, 0.25 mM EDTA, 5% glycerol, 0.025% NP-40, 37 C 10-20 min; label: 32P; letters put together from the …

## TCCTGACATACTTGATACTTAGACATTCTT (double strand) [TZD30/M30-FAM]
[1]; 10 uM oligomer, complete binding at 1:1, triazinyl phosphoramidate with two dodecyl groups at T29*T30 of strand 1, label: FAM on M30 (3' by name)
  binding result: binds

## TCCTGACATACTTGATACTTAGACATTCTT (double strand) [TZD-modified 30-mer DNA duplex]
[1]; 15 uM HSA, smeared bands, triazinyl phosphoramidate with two dodecyl groups at T29*T30 of strand 1, label: 32P
  binding result: binds
Ku antigen; triazinyl phosphoramidate with two dodecyl groups at T29*T30 of strand 1
  binding result: binds
PARP1
  binding result: binds

## TCCTGACATACTTGATACTTAGACATTCTT (double strand) [non-modified 30-mer DNA duplex]
[1]; 15 uM HSA, label: 32P
  binding result: no binding
Ku antigen
  binding result: binds
